# Assay results as given in the supplement of paper PMC7666118.
# Sequences of proteins named here, by UniProt entry; tags and fusion partners are left off. A change or cut given only in a name is not applied to a line headed by its entry.
# UniProt Q96EW2: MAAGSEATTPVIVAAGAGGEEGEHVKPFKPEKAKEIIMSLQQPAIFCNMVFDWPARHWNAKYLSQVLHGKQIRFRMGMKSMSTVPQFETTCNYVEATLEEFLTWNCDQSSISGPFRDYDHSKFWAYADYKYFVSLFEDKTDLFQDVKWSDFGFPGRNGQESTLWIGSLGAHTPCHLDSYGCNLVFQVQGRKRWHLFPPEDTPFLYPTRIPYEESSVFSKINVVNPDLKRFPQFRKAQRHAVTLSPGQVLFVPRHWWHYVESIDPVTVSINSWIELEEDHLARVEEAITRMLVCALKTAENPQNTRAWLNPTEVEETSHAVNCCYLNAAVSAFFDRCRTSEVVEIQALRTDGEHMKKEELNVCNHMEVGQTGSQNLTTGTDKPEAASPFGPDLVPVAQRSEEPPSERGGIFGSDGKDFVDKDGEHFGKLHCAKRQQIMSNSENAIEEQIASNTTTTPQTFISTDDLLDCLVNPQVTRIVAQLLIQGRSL
# UniProt P0C870: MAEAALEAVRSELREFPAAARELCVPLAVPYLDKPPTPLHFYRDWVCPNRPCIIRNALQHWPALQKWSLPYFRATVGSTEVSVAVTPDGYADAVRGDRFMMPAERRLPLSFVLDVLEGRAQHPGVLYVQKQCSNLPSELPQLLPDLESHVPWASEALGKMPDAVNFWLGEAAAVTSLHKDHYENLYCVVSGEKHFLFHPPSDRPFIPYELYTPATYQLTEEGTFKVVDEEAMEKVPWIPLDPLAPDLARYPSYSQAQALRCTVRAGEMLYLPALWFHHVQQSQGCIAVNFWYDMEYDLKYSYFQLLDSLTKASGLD
# UniProt Q00839, whole entry: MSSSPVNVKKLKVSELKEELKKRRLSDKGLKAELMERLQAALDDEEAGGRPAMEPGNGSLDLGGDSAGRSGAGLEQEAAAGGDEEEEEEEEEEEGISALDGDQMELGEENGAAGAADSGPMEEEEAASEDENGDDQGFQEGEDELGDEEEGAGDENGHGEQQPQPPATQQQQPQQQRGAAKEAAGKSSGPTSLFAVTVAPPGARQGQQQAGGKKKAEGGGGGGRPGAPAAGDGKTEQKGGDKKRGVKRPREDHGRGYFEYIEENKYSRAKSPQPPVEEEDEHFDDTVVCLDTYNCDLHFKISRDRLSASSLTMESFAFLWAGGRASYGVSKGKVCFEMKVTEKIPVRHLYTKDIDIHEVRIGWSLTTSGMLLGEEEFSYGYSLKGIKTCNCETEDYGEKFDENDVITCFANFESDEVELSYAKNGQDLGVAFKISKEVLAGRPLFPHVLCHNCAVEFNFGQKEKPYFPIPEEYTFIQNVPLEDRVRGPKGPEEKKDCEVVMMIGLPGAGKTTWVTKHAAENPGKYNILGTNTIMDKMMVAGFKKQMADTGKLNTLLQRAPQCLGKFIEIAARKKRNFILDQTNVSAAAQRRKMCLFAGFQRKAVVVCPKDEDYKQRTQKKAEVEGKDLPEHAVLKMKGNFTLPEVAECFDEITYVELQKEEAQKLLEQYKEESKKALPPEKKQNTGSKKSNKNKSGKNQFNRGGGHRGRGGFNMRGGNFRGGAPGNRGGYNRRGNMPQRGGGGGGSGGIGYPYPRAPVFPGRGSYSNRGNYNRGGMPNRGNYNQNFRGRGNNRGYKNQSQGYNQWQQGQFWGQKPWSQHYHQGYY
# UniProt Q14571, whole entry: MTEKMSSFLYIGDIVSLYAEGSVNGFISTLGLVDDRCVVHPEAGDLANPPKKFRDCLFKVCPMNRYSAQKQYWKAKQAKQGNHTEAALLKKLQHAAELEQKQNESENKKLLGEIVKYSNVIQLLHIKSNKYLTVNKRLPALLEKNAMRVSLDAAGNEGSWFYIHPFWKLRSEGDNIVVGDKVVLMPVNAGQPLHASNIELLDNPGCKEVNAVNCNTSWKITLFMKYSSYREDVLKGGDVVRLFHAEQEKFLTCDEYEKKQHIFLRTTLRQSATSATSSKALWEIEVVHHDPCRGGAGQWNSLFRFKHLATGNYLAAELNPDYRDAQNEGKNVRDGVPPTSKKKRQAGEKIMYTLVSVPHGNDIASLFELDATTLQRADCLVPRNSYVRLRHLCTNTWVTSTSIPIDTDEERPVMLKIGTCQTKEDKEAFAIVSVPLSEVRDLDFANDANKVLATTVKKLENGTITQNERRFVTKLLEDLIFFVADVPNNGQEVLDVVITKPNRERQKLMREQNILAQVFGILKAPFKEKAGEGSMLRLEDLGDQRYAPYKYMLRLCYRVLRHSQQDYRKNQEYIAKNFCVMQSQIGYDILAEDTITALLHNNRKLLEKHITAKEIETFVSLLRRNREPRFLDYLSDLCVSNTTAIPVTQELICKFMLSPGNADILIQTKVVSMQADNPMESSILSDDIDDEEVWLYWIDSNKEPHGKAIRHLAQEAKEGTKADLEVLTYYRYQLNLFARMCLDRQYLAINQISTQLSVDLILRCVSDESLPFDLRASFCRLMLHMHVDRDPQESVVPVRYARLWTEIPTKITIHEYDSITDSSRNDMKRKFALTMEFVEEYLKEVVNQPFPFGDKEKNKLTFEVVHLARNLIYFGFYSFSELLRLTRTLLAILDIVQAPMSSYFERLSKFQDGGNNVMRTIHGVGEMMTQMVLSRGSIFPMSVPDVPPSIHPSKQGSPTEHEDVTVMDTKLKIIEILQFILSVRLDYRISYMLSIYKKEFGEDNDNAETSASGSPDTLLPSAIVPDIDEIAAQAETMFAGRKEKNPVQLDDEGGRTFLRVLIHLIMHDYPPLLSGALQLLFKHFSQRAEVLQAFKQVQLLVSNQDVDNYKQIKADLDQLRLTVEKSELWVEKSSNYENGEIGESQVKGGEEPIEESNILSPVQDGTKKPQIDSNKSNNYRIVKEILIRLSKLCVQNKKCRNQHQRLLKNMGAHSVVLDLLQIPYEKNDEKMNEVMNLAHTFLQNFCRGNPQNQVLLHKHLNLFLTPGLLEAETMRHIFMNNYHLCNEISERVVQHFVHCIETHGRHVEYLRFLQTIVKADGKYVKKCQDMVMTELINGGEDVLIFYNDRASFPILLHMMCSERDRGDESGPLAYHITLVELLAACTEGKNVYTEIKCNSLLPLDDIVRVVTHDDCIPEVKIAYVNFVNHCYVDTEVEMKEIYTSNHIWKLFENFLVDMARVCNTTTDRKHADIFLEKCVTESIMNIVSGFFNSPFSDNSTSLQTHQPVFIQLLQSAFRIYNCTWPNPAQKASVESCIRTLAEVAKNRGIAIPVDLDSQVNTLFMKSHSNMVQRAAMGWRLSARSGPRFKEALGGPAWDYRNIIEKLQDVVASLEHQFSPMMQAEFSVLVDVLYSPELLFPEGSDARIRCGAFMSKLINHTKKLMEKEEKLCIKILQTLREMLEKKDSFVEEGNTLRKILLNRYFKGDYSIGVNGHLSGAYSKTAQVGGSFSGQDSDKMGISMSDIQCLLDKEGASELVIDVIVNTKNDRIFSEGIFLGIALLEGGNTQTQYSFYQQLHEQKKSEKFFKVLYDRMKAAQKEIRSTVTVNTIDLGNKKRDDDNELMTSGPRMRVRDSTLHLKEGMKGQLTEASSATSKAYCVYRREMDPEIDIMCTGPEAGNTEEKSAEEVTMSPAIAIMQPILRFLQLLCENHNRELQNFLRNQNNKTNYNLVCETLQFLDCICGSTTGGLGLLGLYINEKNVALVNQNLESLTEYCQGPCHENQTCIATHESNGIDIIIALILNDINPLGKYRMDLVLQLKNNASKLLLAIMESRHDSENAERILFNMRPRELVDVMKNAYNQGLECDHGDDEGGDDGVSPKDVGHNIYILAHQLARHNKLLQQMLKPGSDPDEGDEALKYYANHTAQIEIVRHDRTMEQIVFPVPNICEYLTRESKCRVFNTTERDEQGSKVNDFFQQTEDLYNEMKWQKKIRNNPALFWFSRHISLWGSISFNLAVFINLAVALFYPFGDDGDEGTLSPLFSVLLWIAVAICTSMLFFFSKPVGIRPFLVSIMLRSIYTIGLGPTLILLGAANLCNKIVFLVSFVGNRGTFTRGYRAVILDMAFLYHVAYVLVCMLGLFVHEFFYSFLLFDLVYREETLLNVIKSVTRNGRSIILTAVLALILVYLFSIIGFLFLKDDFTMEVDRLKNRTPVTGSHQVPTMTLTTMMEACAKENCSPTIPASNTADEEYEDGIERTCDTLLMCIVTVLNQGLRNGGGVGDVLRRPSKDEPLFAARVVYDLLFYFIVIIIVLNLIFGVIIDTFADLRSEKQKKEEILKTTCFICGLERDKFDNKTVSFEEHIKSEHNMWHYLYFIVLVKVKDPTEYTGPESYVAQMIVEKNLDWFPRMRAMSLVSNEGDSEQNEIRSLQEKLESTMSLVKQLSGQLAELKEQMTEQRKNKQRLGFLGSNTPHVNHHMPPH
# UniProt Q9UL03, whole entry: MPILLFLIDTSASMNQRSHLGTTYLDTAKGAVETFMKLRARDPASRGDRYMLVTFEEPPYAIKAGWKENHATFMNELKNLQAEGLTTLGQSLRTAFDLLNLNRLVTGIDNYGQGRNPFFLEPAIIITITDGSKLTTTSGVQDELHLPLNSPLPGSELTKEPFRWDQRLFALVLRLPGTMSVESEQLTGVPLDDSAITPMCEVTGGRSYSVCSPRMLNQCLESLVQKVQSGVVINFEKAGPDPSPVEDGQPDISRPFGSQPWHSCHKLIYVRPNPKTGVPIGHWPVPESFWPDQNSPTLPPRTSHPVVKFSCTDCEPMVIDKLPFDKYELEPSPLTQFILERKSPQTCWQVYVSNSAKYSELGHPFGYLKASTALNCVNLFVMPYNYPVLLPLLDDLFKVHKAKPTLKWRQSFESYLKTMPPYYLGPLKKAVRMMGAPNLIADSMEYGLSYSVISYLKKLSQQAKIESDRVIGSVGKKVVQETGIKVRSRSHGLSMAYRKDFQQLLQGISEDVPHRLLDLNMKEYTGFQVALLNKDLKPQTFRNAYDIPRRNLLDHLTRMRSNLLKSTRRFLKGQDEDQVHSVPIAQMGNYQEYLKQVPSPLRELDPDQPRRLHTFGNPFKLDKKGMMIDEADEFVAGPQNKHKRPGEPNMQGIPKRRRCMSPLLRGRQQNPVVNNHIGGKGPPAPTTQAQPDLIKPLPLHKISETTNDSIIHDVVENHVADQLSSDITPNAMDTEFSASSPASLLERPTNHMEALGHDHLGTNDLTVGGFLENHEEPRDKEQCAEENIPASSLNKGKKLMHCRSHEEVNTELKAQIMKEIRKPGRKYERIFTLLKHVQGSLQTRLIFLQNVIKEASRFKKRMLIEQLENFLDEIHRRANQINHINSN
# UniProt P10809, whole entry: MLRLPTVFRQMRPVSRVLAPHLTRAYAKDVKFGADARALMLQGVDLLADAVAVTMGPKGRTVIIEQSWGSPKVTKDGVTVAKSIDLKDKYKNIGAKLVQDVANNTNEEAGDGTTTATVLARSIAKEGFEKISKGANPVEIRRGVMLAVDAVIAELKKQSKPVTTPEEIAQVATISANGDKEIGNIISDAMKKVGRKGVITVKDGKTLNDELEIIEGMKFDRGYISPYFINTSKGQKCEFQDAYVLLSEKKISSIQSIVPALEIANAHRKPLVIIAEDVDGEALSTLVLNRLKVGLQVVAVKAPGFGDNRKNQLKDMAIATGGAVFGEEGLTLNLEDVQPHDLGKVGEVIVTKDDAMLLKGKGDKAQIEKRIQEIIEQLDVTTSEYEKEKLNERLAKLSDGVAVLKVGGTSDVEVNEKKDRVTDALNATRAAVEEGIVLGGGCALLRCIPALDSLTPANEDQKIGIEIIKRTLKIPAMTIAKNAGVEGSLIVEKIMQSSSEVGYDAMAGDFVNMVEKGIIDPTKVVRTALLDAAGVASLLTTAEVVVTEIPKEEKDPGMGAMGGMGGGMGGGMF
# UniProt Q8IU81: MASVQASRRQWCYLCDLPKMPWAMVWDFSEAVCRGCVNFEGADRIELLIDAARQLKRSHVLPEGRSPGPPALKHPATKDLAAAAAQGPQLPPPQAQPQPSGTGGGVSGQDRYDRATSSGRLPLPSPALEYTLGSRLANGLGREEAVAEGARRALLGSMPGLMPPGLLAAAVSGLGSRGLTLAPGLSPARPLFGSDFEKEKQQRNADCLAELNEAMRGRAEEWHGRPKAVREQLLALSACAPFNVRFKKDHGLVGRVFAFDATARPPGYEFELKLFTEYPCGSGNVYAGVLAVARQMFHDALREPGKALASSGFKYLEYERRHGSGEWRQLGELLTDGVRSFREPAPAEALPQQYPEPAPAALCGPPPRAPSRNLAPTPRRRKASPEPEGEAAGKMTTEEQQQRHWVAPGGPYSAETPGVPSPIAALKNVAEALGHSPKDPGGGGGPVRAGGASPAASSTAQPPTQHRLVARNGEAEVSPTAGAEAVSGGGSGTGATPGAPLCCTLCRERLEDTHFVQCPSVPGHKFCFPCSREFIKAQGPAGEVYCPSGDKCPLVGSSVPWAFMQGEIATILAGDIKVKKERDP
# UniProt Q9UK76: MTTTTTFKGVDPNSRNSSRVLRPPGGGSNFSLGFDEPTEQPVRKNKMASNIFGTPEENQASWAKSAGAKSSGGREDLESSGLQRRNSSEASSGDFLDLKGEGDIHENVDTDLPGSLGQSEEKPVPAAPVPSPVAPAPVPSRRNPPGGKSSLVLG
# This is one part of the list.
# Compound: COc1ccc(Cn2ccc3ccc(C(=O)NO)cc32)cc1
# Experiment: dose-dependent thermal stabilisation call (2D-TPP, DLPTP, 10% FDR) (binary (1 = stabilised)); higher = stabilised by the compound
# Conditions: system: HL-60 intact cells; concentration range 0.04-10 µM
row,Target,dose-dependent thermal stabilisation call
1,HSPBAP1 (UniProt Q96EW2),inactive: 0
2,JMJD7 (UniProt P0C870),inactive: 0
3,HNRNPU (UniProt Q00839),inactive: 0
4,ITPR2 (UniProt Q14571),inactive: 0
5,INTS6 (UniProt Q9UL03),inactive: 0
6,HSPD1 (UniProt P10809),inactive: 0
7,IPO13 (UniProt O94829),inactive: 0
8,IRF2BP1 (UniProt Q8IU81),inactive: 0
9,ITFG3 (UniProt Q9H0X4),inactive: 0
10,HN1 (UniProt Q9UK76),inactive: 0

# Part of the list above, with tabs.
row	Target	dose-dependent thermal stabilisation call
2	JMJD7 (UniProt P0C870)	inactive: 0
3	HNRNPU (UniProt Q00839)	inactive: 0
